From PMC12574955, “The Ync13–Rga7–Rng10 complex selectively coordinates secretory vesicle trafficking and secondary septum formation during cytokinesis” (PLOS Biology, 2025)
These are yes or no findings as the source states them, for the method shown. For some assays here: A result given as binding can be weak or reduced; the word gives no strength. For some assays here: Tags and fused reporters may be left off the sequences shown.

Columns and labels:
Assay in all cases: ectopic mistargeting to mitochondria (Tom20-GBP); protein 1 tagged with mEGFP or mECitrine tethered to mitochondria by Tom20-GBP in live S. pombe cells; recruitment of tdTomato/mCherry/RFP-tagged protein 2 seen by confocal microscopy; Ync13 with Sec1 also tested in rng10Δ cells
[1] = target: T1, 3nmt1-mECitrine-Ync13 (Schizosaccharomyces pombe) (UniProt O13683)
T1 sequence: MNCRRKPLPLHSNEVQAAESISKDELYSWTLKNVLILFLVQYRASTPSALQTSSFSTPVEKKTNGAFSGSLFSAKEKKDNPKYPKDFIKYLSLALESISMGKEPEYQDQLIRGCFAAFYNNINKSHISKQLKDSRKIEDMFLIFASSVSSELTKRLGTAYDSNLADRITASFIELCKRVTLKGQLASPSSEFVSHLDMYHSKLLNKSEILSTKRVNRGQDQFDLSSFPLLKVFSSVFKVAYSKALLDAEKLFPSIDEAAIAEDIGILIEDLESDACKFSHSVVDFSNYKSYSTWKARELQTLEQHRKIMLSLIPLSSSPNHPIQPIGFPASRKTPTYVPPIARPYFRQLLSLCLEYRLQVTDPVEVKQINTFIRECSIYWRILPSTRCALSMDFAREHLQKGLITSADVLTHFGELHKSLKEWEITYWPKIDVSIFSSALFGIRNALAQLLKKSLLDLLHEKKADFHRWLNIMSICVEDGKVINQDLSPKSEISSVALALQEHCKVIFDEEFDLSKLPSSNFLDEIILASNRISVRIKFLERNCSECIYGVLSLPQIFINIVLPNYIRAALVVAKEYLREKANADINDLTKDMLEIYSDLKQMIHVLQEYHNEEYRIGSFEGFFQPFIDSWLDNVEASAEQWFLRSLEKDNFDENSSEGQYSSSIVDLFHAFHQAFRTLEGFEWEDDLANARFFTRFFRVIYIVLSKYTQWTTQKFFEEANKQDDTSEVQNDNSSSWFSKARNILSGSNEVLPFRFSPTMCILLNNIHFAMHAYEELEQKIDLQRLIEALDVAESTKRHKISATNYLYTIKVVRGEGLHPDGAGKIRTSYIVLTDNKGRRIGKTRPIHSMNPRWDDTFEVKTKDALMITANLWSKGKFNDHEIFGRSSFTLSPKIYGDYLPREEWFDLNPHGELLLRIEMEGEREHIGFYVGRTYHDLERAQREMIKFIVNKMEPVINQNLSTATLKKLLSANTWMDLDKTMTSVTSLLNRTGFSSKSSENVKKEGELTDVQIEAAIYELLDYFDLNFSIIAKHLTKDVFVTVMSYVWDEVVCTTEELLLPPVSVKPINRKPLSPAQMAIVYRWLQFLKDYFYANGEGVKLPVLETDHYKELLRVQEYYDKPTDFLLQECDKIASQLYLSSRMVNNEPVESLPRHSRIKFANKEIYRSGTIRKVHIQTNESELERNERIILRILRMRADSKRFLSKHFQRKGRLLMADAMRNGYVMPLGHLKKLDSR

[2] = target: T2, Rga7-mEGFP (Schizosaccharomyces pombe) (UniProt O94466)
T2 sequence: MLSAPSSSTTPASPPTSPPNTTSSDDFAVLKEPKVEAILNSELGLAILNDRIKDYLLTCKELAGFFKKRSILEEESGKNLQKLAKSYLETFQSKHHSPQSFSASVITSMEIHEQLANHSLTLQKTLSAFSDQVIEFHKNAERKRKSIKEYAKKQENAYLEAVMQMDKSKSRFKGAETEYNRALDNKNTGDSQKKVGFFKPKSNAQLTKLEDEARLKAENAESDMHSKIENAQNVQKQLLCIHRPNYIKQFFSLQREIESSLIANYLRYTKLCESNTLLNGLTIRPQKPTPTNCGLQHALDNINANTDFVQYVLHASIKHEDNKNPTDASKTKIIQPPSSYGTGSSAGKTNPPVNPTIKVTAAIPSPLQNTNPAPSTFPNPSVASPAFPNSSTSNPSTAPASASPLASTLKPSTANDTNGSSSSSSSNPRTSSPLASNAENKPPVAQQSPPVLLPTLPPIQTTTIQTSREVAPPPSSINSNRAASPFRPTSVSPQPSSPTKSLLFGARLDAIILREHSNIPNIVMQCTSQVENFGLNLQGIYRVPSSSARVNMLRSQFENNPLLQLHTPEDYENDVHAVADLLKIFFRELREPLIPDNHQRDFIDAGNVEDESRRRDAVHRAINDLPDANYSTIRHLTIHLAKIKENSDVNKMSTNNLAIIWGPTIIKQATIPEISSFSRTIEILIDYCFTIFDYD

[3] = target: T3, Rng10-mEGFP (Schizosaccharomyces pombe) (UniProt Q9P6L9)
T3 sequence: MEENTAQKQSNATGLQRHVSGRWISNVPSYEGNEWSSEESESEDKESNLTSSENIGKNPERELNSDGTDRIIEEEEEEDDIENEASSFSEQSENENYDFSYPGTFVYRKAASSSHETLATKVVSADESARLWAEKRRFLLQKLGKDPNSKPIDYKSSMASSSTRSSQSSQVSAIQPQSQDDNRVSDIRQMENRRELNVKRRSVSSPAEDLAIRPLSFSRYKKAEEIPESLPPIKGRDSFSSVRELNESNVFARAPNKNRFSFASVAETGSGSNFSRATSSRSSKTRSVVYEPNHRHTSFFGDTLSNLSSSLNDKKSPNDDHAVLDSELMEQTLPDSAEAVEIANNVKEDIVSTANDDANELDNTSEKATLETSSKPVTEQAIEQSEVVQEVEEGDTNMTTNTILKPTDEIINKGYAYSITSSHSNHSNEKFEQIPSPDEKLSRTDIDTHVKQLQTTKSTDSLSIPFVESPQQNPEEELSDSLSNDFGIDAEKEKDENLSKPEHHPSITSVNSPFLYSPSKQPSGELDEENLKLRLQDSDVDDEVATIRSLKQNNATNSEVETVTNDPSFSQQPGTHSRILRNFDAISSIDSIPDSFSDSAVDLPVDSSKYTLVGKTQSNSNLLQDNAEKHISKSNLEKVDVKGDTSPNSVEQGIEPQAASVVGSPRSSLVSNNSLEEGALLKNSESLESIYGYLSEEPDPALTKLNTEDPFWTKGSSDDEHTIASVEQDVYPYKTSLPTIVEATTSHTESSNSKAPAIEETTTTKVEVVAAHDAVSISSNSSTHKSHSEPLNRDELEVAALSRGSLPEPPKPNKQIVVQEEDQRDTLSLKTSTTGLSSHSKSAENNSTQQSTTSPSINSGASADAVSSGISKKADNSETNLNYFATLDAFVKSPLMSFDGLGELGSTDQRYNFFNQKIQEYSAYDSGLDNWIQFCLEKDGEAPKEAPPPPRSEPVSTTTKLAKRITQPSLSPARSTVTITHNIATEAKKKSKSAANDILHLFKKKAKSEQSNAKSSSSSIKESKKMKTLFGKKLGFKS

[4] = target: Rga7(∆F-BAR)-mEGFP (Schizosaccharomyces pombe)

Ede1-mCherry (Schizosaccharomyces pombe)
binding [1]: no binding

Sec3-mCherry (Schizosaccharomyces pombe)
binding [1]: no binding

Sec3-tdTomato (Schizosaccharomyces pombe)
binding [2]: no binding | binding [3]: no binding

B1: Ync13-tdTomato (protein, UniProt O13683 1-1237)
chain: MNCRRKPLPLHSNEVQAAESISKDELYSWTLKNVLILFLVQYRASTPSALQTSSFSTPVEKKTNGAFSGSLFSAKEKKDNPKYPKDFIKYLSLALESISMGKEPEYQDQLIRGCFAAFYNNINKSHISKQLKDSRKIEDMFLIFASSVSSELTKRLGTAYDSNLADRITASFIELCKRVTLKGQLASPSSEFVSHLDMYHSKLLNKSEILSTKRVNRGQDQFDLSSFPLLKVFSSVFKVAYSKALLDAEKLFPSIDEAAIAEDIGILIEDLESDACKFSHSVVDFSNYKSYSTWKARELQTLEQHRKIMLSLIPLSSSPNHPIQPIGFPASRKTPTYVPPIARPYFRQLLSLCLEYRLQVTDPVEVKQINTFIRECSIYWRILPSTRCALSMDFAREHLQKGLITSADVLTHFGELHKSLKEWEITYWPKIDVSIFSSALFGIRNALAQLLKKSLLDLLHEKKADFHRWLNIMSICVEDGKVINQDLSPKSEISSVALALQEHCKVIFDEEFDLSKLPSSNFLDEIILASNRISVRIKFLERNCSECIYGVLSLPQIFINIVLPNYIRAALVVAKEYLREKANADINDLTKDMLEIYSDLKQMIHVLQEYHNEEYRIGSFEGFFQPFIDSWLDNVEASAEQWFLRSLEKDNFDENSSEGQYSSSIVDLFHAFHQAFRTLEGFEWEDDLANARFFTRFFRVIYIVLSKYTQWTTQKFFEEANKQDDTSEVQNDNSSSWFSKARNILSGSNEVLPFRFSPTMCILLNNIHFAMHAYEELEQKIDLQRLIEALDVAESTKRHKISATNYLYTIKVVRGEGLHPDGAGKIRTSYIVLTDNKGRRIGKTRPIHSMNPRWDDTFEVKTKDALMITANLWSKGKFNDHEIFGRSSFTLSPKIYGDYLPREEWFDLNPHGELLLRIEMEGEREHIGFYVGRTYHDLERAQREMIKFIVNKMEPVINQNLSTATLKKLLSANTWMDLDKTMTSVTSLLNRTGFSSKSSENVKKEGELTDVQIEAAIYELLDYFDLNFSIIAKHLTKDVFVTVMSYVWDEVVCTTEELLLPPVSVKPINRKPLSPAQMAIVYRWLQFLKDYFYANGEGVKLPVLETDHYKELLRVQEYYDKPTDFLLQECDKIASQLYLSSRMVNNEPVESLPRHSRIKFANKEIYRSGTIRKVHIQTNESELERNERIILRILRMRADSKRFLSKHFQRKGRLLMADAMRNGYVMPLGHLKKLDSR
binding [4]: binds
